These are yes or no findings as the source states them, for the method shown. Binding seen in cells or lysates may run through a third protein. Some results given as binding are weak or reduced against the parent protein; the word gives no strength. Tags and fused reporters may be left off the sequences shown.

By UniProt entry, the sequences of proteins in these tests, tags left out.
UniProt Q5DU05: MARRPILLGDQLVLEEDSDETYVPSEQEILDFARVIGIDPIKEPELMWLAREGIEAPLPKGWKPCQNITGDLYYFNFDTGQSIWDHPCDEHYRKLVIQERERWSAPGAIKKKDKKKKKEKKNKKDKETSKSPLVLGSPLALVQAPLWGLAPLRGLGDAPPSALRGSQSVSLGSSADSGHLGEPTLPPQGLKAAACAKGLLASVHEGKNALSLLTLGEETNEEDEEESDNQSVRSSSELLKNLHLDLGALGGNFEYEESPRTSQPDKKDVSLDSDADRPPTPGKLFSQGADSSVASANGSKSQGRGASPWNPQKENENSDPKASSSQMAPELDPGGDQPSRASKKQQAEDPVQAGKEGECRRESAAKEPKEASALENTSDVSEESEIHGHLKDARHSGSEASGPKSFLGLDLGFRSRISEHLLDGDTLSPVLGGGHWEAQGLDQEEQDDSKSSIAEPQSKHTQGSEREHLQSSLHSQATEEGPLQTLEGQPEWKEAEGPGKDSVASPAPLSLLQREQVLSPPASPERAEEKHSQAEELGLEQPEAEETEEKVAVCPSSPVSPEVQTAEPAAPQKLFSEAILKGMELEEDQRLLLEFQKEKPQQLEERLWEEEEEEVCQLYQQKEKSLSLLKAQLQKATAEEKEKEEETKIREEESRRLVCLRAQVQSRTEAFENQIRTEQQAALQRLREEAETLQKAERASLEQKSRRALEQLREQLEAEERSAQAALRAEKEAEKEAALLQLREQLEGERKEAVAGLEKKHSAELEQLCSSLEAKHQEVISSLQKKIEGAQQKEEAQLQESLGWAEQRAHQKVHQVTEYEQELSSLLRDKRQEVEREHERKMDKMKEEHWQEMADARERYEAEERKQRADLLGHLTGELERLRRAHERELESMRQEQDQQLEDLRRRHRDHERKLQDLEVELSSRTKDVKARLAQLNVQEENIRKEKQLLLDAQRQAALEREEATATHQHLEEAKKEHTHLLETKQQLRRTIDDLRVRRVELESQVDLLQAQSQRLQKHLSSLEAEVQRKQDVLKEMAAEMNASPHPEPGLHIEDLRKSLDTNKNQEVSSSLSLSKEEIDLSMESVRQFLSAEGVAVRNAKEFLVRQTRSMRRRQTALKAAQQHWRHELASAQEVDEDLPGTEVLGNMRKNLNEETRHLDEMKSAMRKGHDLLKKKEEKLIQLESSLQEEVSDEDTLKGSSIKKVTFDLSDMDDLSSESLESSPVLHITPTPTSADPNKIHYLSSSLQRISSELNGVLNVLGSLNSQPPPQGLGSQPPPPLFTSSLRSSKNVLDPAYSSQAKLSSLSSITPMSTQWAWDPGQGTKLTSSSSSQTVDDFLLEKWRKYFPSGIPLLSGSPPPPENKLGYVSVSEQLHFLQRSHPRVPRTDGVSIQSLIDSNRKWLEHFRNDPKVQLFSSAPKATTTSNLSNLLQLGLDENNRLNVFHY

The target of assay [1] is T1, GFP-tagged CCDC92 (mouse) (UniProt Q8VDN4).
T1 sequence: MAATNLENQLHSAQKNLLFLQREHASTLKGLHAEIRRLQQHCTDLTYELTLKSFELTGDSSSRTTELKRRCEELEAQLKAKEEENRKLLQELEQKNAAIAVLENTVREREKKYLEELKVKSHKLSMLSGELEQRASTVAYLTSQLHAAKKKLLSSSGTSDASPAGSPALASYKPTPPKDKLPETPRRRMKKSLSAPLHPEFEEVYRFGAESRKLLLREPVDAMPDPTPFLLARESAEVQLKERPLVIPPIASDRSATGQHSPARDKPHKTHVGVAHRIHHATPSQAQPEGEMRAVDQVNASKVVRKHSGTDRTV
Briefly: co-IP; GFP-CCDC92 and mouse testis lysates, GFP-Trap agarose beads, blots with IFT74, IFT81, CEP164 and GFP antibodies.

In assay [2] the target is T1, GFP-tagged CCDC92 (mouse). Nature of the assay: co-IP; GFP-tagged CCDC92 (whole, fragments, HCR deletions) exogenously expressed in HEK293T cells, GFP-Trap agarose beads, blots with IFT74, IFT81, CEP164 and GFP antibodies.

Regarding “CEP164 (endogenous, mouse testis) (from UniProt Q5DU05 1-1446)”, in assay [1], the binding entry is reported as “binds”.

B1: IFT81 (endogenous, mouse testis) (protein, UniProt O35594 1-676)
chain: MSDQIKFIVDSLNKEPFKKNYNLITFDSLGPMQLLQVLNDVLAEIDPKQDVDIREEMPEQTAKRMLNLLGILKYKPPGNATDMSTFRQGLVIGSKPVIYPVLHWLLQRSNELKKRAYLARFLIKLEVPSEFLQDETVADTNKQYEELMEAFKTLHKECEQLKTSGFSTAEIRRDISAMEEEKDQLMKRVERLKKRVETVQNHQRMLKIARQLRVEKEREEFLAQQKQEQKNQLFHAVQRLQRVQNQLKSMRHAAADAKPESLMKRLEEEIKFNSYMVTEKFPKELESKKKELHFLQKVVSEPAMGHSDLLELETKVNEVNTEINQLIEKKMMRNEPIEGKLSLYRQQASIISRKKEAKAEELQETKEKLASLEREVLVKTNQTREFDGTEVLKGDEFKRYVSKLRSKSTVFKKKHQIIAEFKAEFGLLQRTEELLKQRQETIQHQLRTIEEKKGISGYSYTQEELERVSALKSEVDEMKGRTLDDMSEMVKKLNSLVSEKKSALAPVIKELRQLRQKCQELTQECDEKKAQYDSCAAGLESNRSKLEQEVRGLREECLQEESKYHYTNCMIKNLEVELRRATDEMKAYVSSDQQEKRKAIREQYTKNITEQENLGKKLREKQKAVRESHGPNMKQAKMWRDLEQLMECKKQCFLKQQSPASIGQVIQEGGEDRLVL
In the case of B1, the binding result in assay [1] is “binds”.

B2: IFT81 (endogenous, HEK293T) (protein, UniProt Q8WYA0 1-676)
chain: MSDQIKFIMDSLNKEPFRKNYNLITFDSLEPMQLLQVLSDVLAEIDPKQLVDIREEMPEQTAKRMLSLLGILKYKPSGNATDMSTFRQGLVIGSKPVIYPVLHWLLQRTNELKKRAYLARFLIKLEVPSEFLQDETVADTNKQYEELMEAFKTLHKEYEQLKISGFSTAEIRKDISAMEEEKDQLIKRVEHLKKRVETAQNHQWMLKIARQLRVEKEREEYLAQQKQEQKNQLFHAVQRLQRVQNQLKSMRQAAADAKPESLMKRLEEEIKFNLYMVTEKFPKELENKKKELHFLQKVVSEPAMGHSDLLELESKINEINTEINQLIEKKMMRNEPIEGKLSLYRQQASIISRKKEAKAEELQEAKEKLASLEREASVKRNQTREFDGTEVLKGDEFKRYVNKLRSKSTVFKKKHQIIAELKAEFGLLQRTEELLKQRHENIQQQLQTMEEKKGISGYSYTQEELERVSALKSEVDEMKGRTLDDMSEMVKKLYSLVSEKKSALASVIKELRQLRQKYQELTQECDEKKSQYDSCAAGLESNRSKLEQEVRRLREECLQEESRYHYTNCMIKNLEVQLRRATDEMKAYISSDQQEKRKAIREQYTKNTAEQENLGKKLREKQKVIRESHGPNMKQAKMWRDLEQLMECKKQCFLKQQSQTSIGQVIQEGGEDRLIL
In the case of B2, the binding entry in assay [2] is listed as “binds”.

The values are drawn from paper PMC12802938.
